Values from PubChem BioAssay AID743454 (Peter MacCallum Cancer Centre, 2014).
Test: 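Knock-downs lowering viability or raising caspase 3/7 activity in vorinostat-treated resistant cells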 (primary screen). Cell system: human HCT116-VR colon cancer cells, selected for vorinostat resistance. Reagents: siRNA pool against human genes, 40 nM siRNA pool. Timing: vorinostat for 24 h, read-out about 72 h after transfection. Conditions: vorinostat at 2.5 µM final. Detection: 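Cell viability by CellTiter-Fluor and caspase 3/7 activity by luminescence, each scaled to mock wells per plate, duplicates averaged, then robust z-scored over all plates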. Direction: viability robust z-score: higher = more viable cells than screen typical; caspase robust z-score: higher = more caspase 3/7 activity than screen typical. Rule for the call: 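Hits are knock-downs in viability class RV1/RV2 or caspase class CA1/CA2, excluding ones that killed cells in the no-drug cell-count arm; hits then retested with single siRNAs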.
Here is an unselected part of about 18,000 reagents. 450 of them (2.5%) count as active. 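Single biological run; no consistent viability z cut-off exists, so the class columns, not z-scores, define the calls.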

target gene,PubChem SID,viability hit class,caspase hit class,viability robust z-score,caspase robust z-score,Outcome
NACC2 (NACC family member 2),SID134319972,no change,no change,-2.32,0.32,inactive
ATG13 (autophagy related 13),SID135624054,no change,no change,-0.07,0.26,inactive
TMEM183A (transmembrane protein 183A),SID152152203,no change,no change,-0.6,-0.84,inactive
MAOA (monoamine oxidase A),SID134314124,no change,no change,-2.15,-0.59,inactive
H2BC11 (H2B clustered histone 11),SID134317353,no change,no change,0.25,-0.24,inactive
PDE12 (phosphodiesterase 12),SID135623421,no change,no change,2.69,2.71,inactive
PLAAT4 (phospholipase A and acyltransferase 4),SID152154573,no change,no change,-0.22,4.88,inactive
GHDC (GH3 domain containing),SID134315087,no change,no change,-0.9,4.2,inactive
CLEC4C (C-type lectin domain family 4 member C),SID152151334,no change,no change,0.38,0.1,inactive
KIF6 (kinesin family member 6),SID152153703,no change,no change,0.42,2.22,inactive
PSMA3 (proteasome 20S subunit alpha 3),SID134316076,no change,no change,-4.08,3.83,inactive
AGO2 (argonaute RISC catalytic component 2),SID134310558,no change,no change,0.49,-0.8,inactive
KMT2B (lysine methyltransferase 2B),SID134314396,no change,no change,-0.94,0.65,inactive
CCL8 (C-C motif chemokine ligand 8),SID135621456,no change,no change,-1.01,-0.29,inactive
UBE2E1 (ubiquitin conjugating enzyme E2 E1),SID134313699,no change,no change,-0.29,-0.71,inactive
IL24 (interleukin 24),SID135621481,no change,no change,-0.63,0.3,inactive
FCRL1 (Fc receptor like 1),SID152150607,no change,no change,0.52,-1.01,inactive
CIRBP (cold inducible RNA binding protein),SID134323920,no change,no change,-0.23,1.96,inactive
NXPH1 (neurexophilin 1),SID152150096,no change,no change,0.64,-0.84,inactive
EXTL2 (exostosin like glycosyltransferase 2),SID135622344,no change,no change,-0.26,0.13,inactive
PAX1 (paired box 1),SID135623920,no change,no change,-0.06,-0.04,inactive
KIF1A (kinesin family member 1A),SID134314832,no change,no change,-0.03,0.08,inactive
CDX1 (caudal type homeobox 1),SID152150507,no change,no change,-0.76,1.29,inactive
"PSMD1 (proteasome 26S subunit, non-ATPase 1)",SID134315707,no change,no change,-5.04,-0.18,inactive
CAPN6 (calpain 6),SID135621770,no change,no change,0.96,4,inactive
ECM1 (extracellular matrix protein 1),SID134316165,no change,no change,-0.06,-0.01,inactive
ZBED4 (zinc finger BED-type containing 4),SID152151719,no change,no change,0.06,-1.06,inactive
CIB3 (calcium and integrin binding family member 3),SID134317151,no change,no change,-0.75,1.36,inactive
NR2C2 (nuclear receptor subfamily 2 group C member 2),SID152155442,no change,no change,-0.33,-0.66,inactive
MTMR7 (myotubularin related protein 7),SID135621493,no change,no change,0.73,1.6,inactive
"RNFT2 (ring finger protein, transmembrane 2)",SID152147173,no change,no change,0.92,0.35,inactive
S100B (S100 calcium binding protein B),SID135622284,no change,no change,0.44,-0.94,inactive
AANAT (aralkylamine N-acetyltransferase),SID134314951,no change,no change,-2.51,-0.34,inactive
NDRG2 (NDRG family member 2),SID134318058,no change,no change,0.38,0.61,inactive
FKBPL (FKBP prolyl isomerase like),SID134323056,no change,no change,1.33,-0.34,inactive
NPIPB7 (nuclear pore complex interacting protein family member B7),SID135625318,no change,no change,-0.03,-0.74,inactive
IDH2 (isocitrate dehydrogenase (NADP(+)) 2),SID134310230,no change,no change,1.2,-0.18,inactive
TUBB4A (tubulin beta 4A class IVa),SID134314380,no change,no change,0.28,-1.25,inactive
KISS1 (KiSS-1 metastasis suppressor),SID135622101,no change,no change,-2.6,1.68,inactive
PCYOX1 (prenylcysteine oxidase 1),SID134314808,no change,no change,1.62,-0.7,inactive
MON1B (MON1 vesicular trafficking associated B),SID134325044,no change,no change,0.71,-0.37,inactive
LRRC10 (leucine rich repeat containing 10),SID135624674,no change,no change,-0.84,-0.16,inactive
RPL11 (ribosomal protein L11),SID134317915,no change,no change,-2.99,-0.6,inactive
HADH (hydroxyacyl-CoA dehydrogenase),SID152151729,no change,no change,-0.38,0.42,inactive
CA4 (carbonic anhydrase 4),SID134313629,no change,no change,-1.07,0.44,inactive
SMPD4 (sphingomyelin phosphodiesterase 4),SID135624027,no change,no change,1.4,-1.33,inactive
TEX55 (testis expressed 55),SID134319580,no change,no change,-0.78,3.5,inactive
PRSS27 (serine protease 27),SID134311396,no change,no change,0.2,1.33,inactive
PPIL1 (peptidylprolyl isomerase like 1),SID134313139,no change,no change,-0.84,-1,inactive
ADAM20 (ADAM metallopeptidase domain 20),SID152151134,no change,no change,0.46,-0.4,inactive
CRYAB (crystallin alpha B),SID134314460,no change,no change,-0.7,1.19,inactive
CUBN (cubilin),SID135622073,no change,no change,0.44,-1.04,inactive
MAB21L2 (mab-21 like 2),SID134317102,no change,no change,0.26,0.29,inactive
TMEM62 (transmembrane protein 62),SID152152574,no change,no change,-0.2,-0.9,inactive
TTLL3 (tubulin tyrosine ligase like 3),SID152150772,no change,no change,-2.84,0.23,inactive
TRIB1 (tribbles pseudokinase 1),SID56478720,no change,no change,0.64,-0.29,inactive
AKIP1 (A-kinase interacting protein 1),SID152148173,no change,no change,0.68,0.06,inactive

Looked up above:
PSMA3 (proteasome 20S subunit alpha 3) [SID134316076], Outcome = inactive
Value of TEX55 (testis expressed 55) [SID134319580] in “caspase robust z-score”: 3.5
Value for PAX1 (paired box 1) [SID135623920] under “caspase hit class”: no change
Value for FCRL1 (Fc receptor like 1) [SID152150607] under “caspase robust z-score”: -1.01
